Record: PubChem BioAssay AID1259405 (NCATS, 2018)
The deposit covers about 50,000 reagents; shown is an unselected part. Over the whole deposit, about 4,000 (8%) got an active call. 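Mouse siRNA library applied to hamster cells; one well for each siRNA.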 The numbers tell different reagents against one gene apart.

Assay: 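Silenced genes that increase secreted GFP made by CHO cells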 (primary screen)
System: Chinese hamster CHO-K1 ovary cells with stable secreted eGFP expression
Knock-down reagent: single siRNA against mouse genes, 0.8 pmol siRNA per well (2 µl of 400 nM stock)
Duration: 3 days
Measurement: 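Per-well intracellular GFP measured by laser scanning cytometry, plus viability from ATP luminescence, each relative to plate median of non-targeting control wells, in %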
Scale: GFP, % of control: higher = more GFP per well, higher productivity; viability (ATP), % of control: higher = more viable cells (more ATP)
Rule for the call: 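Called active when intracellular GFP, relative to negative control, is at or above 120%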

target | reagent no. | GFP, % of control | viability (ATP), % of control | activity call
Or7g30 | 1 | 73 | 89.7 | inactive
Or7g30 | 2 | 79.4 | 58.5 | inactive
Or7g30 | 3 | 53.8 | 73.1 | inactive
Spr | 1 | 71.9 | 97.7 | inactive
Spr | 2 | 77.8 | 84.8 | inactive
Spr | 3 | 80.5 | 80.5 | inactive
Acat3 | 1 | 68.2 | 36.2 | inactive
Acat3 | 2 | 72.5 | 66.6 | inactive
Acat3 | 3 | 106 | 76.7 | inactive
Tmt1a2 | 1 | 51.9 | 46.7 | inactive
Tmt1a2 | 2 | 106 | 96.7 | inactive
Tmt1a2 | 3 | 24.1 | 44.3 | inactive
Cd34 | 1 | 49.4 | 59.3 | inactive
Cd34 | 2 | 33.5 | 49.5 | inactive
Cd34 | 3 | 99.1 | 96.6 | inactive
Tpgs1 | 1 | 97.1 | 94.3 | inactive
Tpgs1 | 2 | 128 | 57.9 | active
Tpgs1 | 3 | 65.9 | 61.9 | inactive
Lce1a2 | 1 | 71.7 | 104 | inactive
Lce1a2 | 2 | 150 | 125 | active
Lce1a2 | 3 | 133 | 143 | active
Nmb | 1 | 57.7 | 47.8 | inactive
Nmb | 2 | 81.3 | 85.1 | inactive
Nmb | 3 | 75.1 | 46.3 | inactive
Gja5 | 1 | 33.6 | 48.3 | inactive
Gja5 | 2 | 95.6 | 88.6 | inactive
Gja5 | 3 | 115 | 115 | inactive
4931440P22Rik | 1 | 76.6 | 80 | inactive
4931440P22Rik | 2 | 90.5 | 85.1 | inactive
4931440P22Rik | 3 | 111 | 89.6 | inactive
Dmp1 | 1 | 47.4 | 77.6 | inactive
Dmp1 | 2 | 85.2 | 49.4 | inactive
Dmp1 | 3 | 62.4 | 64.7 | inactive
Ubxn10 | 1 | 76.4 | 78.3 | inactive
Ubxn10 | 2 | 68.6 | 107 | inactive
Ubxn10 | 3 | 75.5 | 82.5 | inactive
Tmem147 | 1 | 105 | 65.8 | inactive
Tmem147 | 2 | 74.1 | 102 | inactive
Tmem147 | 3 | 110 | 112 | inactive
Sugt1 | 1 | 71.7 | 83.2 | inactive
Sugt1 | 2 | 52.7 | 31.7 | inactive
Sugt1 | 3 | 74.3 | 82 | inactive
Mbd3 | 1 | 67.9 | 79.8 | inactive
Mbd3 | 2 | 52.1 | 53.6 | inactive
Mbd3 | 3 | 51.7 | 52.4 | inactive
Nudt14 | 1 | 104 | 102 | inactive
Nudt14 | 2 | 74.8 | 58.1 | inactive
Nudt14 | 3 | 61.6 | 70.7 | inactive
Lipa | 1 | 92.1 | 111 | inactive
Lipa | 2 | 63 | 83 | inactive
Lipa | 3 | 76.5 | 78.5 | inactive
Mycbp | 1 | 78.8 | 54 | inactive
Mycbp | 2 | 55.2 | 82.5 | inactive
Mycbp | 3 | 78.8 | 83.8 | inactive
Spag5 | 1 | 98.3 | 88.5 | inactive
Spag5 | 2 | 91.2 | 81.2 | inactive
Spag5 | 3 | 47.7 | 65.4 | inactive

Ordered by “GFP, % of control” (ascending): 8 of the entries above.
target | reagent no. | GFP, % of control | viability (ATP), % of control | activity call
Tmt1a2 | 1 | 51.9 | 46.7 | inactive
Or7g30 | 3 | 53.8 | 73.1 | inactive
Acat3 | 1 | 68.2 | 36.2 | inactive
Spr | 1 | 71.9 | 97.7 | inactive
Acat3 | 2 | 72.5 | 66.6 | inactive
Spr | 2 | 77.8 | 84.8 | inactive
Spr | 3 | 80.5 | 80.5 | inactive
Acat3 | 3 | 106 | 76.7 | inactive
